Some results come without the dose or concentration used.
What was measured:
[1] = test system: T. vaginalis; experiment: In vitro antiprotozoal activity against T. vaginalis; format: cell-based; details: ratio antiprotozoal activity/mutagenicity relative to known compound I
Text: (§1) Several 5-nitroimidazoles have been tested for in vitro antiprotozoal activity against T. foetus, T. vaginalis, and G. lamblia.

[2] = test system: T. foetus; experiment: In vitro antiprotozoal activity against T. foetus; format: cell-based; details: ratio antiprotozoal activity/mutagenicity relative to known compound I
Text: as §1

Structure (SMILES): Cn1c([N+](=O)[O-])cnc1COC(N)=O [I, reference compound]
- Efficacy Index T. vaginalis [1]: 1.0
- Efficacy Index T. foetus [2]: 1.0

— patent US4678799A, “1,2(1,4)-dimethyl-4(2)-(2-hydroxyethyl)-5-nitro-imidazole antiprotozoal agents with reduced mutagenicity” (Merck & Co., Inc., priority 1984, dated 1987)
